PubChem BioAssay AID504784, Drosophila RNAi Screening Center, 2011
In all, the deposit lists about 17,000 reagents; shown is a random part of those with a known target gene and a result. 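Each column is one replicate's B-score; the combined score over replicates was not deposited, so single values may mislead.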 A plus sign joins genes that one reagent is predicted to hit.

- Aim: 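Fly genes whose silencing alters how much lipid cells keep in droplets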 (primary screen)
- Cell system: Drosophila Kc167 embryonic cells
- Knock-down reagent: long dsRNA against Drosophila genes, about 250 ng dsRNA per well
- Duration: 4 days
- Conditions: cells fed 400 µM oleic acid bound to BSA
- Measurement: 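Microscope images give a droplet-to-nucleus area ratio, taken as log and converted to a screen-wide B-score; higher values mean greater lipid storage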
- Reading the numbers: droplet/nuclear area B-score: higher = more stored lipid (overstorage)

target gene | amplicon | droplet/nuclear area B-score, replicate 1 | droplet/nuclear area B-score, replicate 2 | droplet/nuclear area B-score, replicate 3
CG7227 | DRSC03032 | -0.0175 | 0.25 | –
Crz (Corazonin) | DRSC16615 | 0.0533 | -1.83 | –
Gcat (Glycine C-acetyltransferase) | DRSC09719 | 1.05 | 1.11 | –
CG15657 | DRSC04248 | 1.51 | 0.0814 | –
CG11617 | DRSC00321 | -0.207 | 1.85 | –
CG11617 | DRSC21786 | -1.76 | -2.49 | –
CG6304 | DRSC02948 | -2.42 | 0.869 | –
CG3618 | DRSC11746 | 2.14 | 3.39 | -1.14
HIP + HIP-R | DRSC18245 | -0.326 | – | –
CG8003 | DRSC10946 | -0.578 | -1.25 | –
lncRNA:CR31526 (long non-coding RNA:CR31526) | DRSC21520 | 1.85 | -0.5 | –
tio (tiptop) | DRSC03739 | -0.169 | -0.0786 | –
Csgalnact (Chondroitin sulfate N-acetylgalactosaminyltransferase) | DRSC06228 | 0.816 | 0.651 | –
CG15385 | DRSC00399 | 0.16 | -3.96 | –
CG7772 | DRSC20056 | 0.546 | 0.618 | –
Sulf1 (Sulfated) | DRSC16874 | 0.87 | 0.59 | –
CG6005 | DRSC15945 | -0.774 | 4.45 | –

An excerpt from above, limited to “droplet/nuclear area B-score, replicate 2”.
Csgalnact (Chondroitin sulfate N-acetylgalactosaminyltransferase) [DRSC06228] = 0.651
CG15385 [DRSC00399] = -3.96

Further results follow:
target gene | amplicon | droplet/nuclear area B-score, replicate 1 | droplet/nuclear area B-score, replicate 2 | droplet/nuclear area B-score, replicate 3
Usf | DRSC18129 | -0.676 | -0.0177 | –
Ect3 (Ectoderm-expressed 3) | DRSC15462 | -0.0332 | 3.5 | –
CG31959 (retired record) | DRSC22912 | -1.34 | 0.104 | –
CHKov1 (CHK domain ov1) | DRSC01566 | -0.853 | -1.1 | –
CHKov1 (CHK domain ov1) | DRSC01696 | 1.64 | -1.45 | –
CHKov1 (CHK domain ov1) | DRSC14258 | 0.0687 | 0.847 | –
CHKov1 (CHK domain ov1) | DRSC20937 | 0.159 | 0.853 | –
cmet (CENP-meta) | DRSC03511 | -2.06 | 0.000552 | –
cal1 (chromosome alignment defect 1) | DRSC15725 | 1.19 | 3.12 | –
CG31800 | DRSC22525 | -1.02 | -1.12 | –
CG12640 | DRSC17847 | 0.115 | 0.00446 | -1.19
Cht10 (Chitinase 10) | DRSC03766 | -0.531 | -2.21 | –
Cht10 (Chitinase 10) | DRSC03767 | -0.0482 | -1.17 | –
Cht10 (Chitinase 10) | DRSC03768 | 0.333 | -1.23 | –
Grip71 | DRSC02042 | 1.31 | 1.37 | –
CG32388 | DRSC08861 | 0.658 | 2.25 | –
CG7888 | DRSC10926 | -0.955 | 0.237 | –
